Measurements taken from article PMC9668127.
Results are given in words; binding and its absence hold for the method and conditions named. In cells and extracts the contact can be indirect. These calls come from enrichment with a bait or labelling near it, and not all partners need be listed.

Biological target: Bombyx mori sucrose hydrolase (BmSUH), endogenous midgut protein (Bombyx mori (endogenous in larval midgut))
Test: affinity purification with mass spectrometry; endogenous BmSUH immunoprecipitated with anti-BmSUH antibody and protein A+G agarose from midgut lysates of BmNPV-infected WT larvae (72 and 96 hpi; controls: uninfected WT, infected ΔBmSUH); IP buffer 20 mM Tris pH 7.5, 150 mM NaCl, 1% Triton X-100, 1 mM PMSF, 4°C overnight; 70 kDa and 100 kDa SDS-PAGE bands analysed by LC-MS/MS

B1: P74 (PIF0) of BmNPV, from infected midgut (protein, UniProt O92491 1-645)
chain: MAVLTAVDLTNASRYAIHMHRLEFISRWRTRFPHILIDYTLRPASSDDDYYVPPKLADRALAVKLTFSKRGCESMSCYPFHETGVVSNTTPFMYTQTSETRVGYAQPACYHLDRAAAMREGAENKVQSAEFRYTPDNRCILVDSLSKMYFNSPYLRTEEHTIMGVDDVPAFNVRPDPDPLFPERFKGEFNEAYCRRFGRNLFNGGCSFRWWESLVGFVLGDTILVTFKMLANNVFSELRNFDYRAPSSILPPRPNVDSNAILAQWRSVRDTTTDLEFEKLFTKRPTLNDLGMIVDGSPVQITYTAETGFTKTPITYNYRGTERVHVEHFEALDRSISDQDLESIITKFLEDYAIIFGIATDAGFEMLMSGFKSMLKKINTTLIPALKRMLVSTTRRVTARILGETYKAAIVHSFNAIAIKTLTTTAKALTRIAIKASSVIGIVLILLTLADLVLALWDPFGYNNMFPREFPDDMSRTFLTAYFESLDNTTSREIIEFMPEFFSDMVETDDKATFESLFHLLNYVTSLEVNSDGQMLKLDEGDKIEDFDESTLVGKALATSSLYTRMEFMQYTFRQNTILSMNKKNNNFNQIIMGLFATNTIVAFTAFVIHKQLIFFIFFVIFLMITFYYIVKESYGYYKTIDLLF
In the case of B1, the binding is reported as “binds”.
